PubChem BioAssay AID720710 | VTT Finland | 2013

Screen: 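Knock-downs that leave cyclin E-high cells sensitive to replication stress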 (primary screen)
Cell system: human U-2 OS bone cancer cells, parental and a cyclin E (CCNE1) overexpressing line
Reagents: single siRNA against human genes, 1 µM siRNA in the printed spot mix
Time to read-out: 67 h
Challenge: half the arrays: hydroxyurea 2 mM for 16 h, then 3 h recovery; other arrays untreated
Measurement: 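EdU click signal imaged per DAPI-stained nucleus at 67 h; each spot divided by its subgrid median, then z-scored relative to non-targeting control spots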
Reading the numbers: EdU z-score, cyclin E line, hydroxyurea: higher = more DNA synthesis than non-targeting controls
The deposit covers about 1,380 reagents; below is a part drawn at random. 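One array per condition without replicates; hydroxyurea arrays received 2 mM for 16 h plus 3 h recovery.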 The numbers tell different reagents against one gene apart. Further read-outs or replicates are left out here.

SMARCA4 #1 gave EdU z-score, cyclin E line, hydroxyurea -1.34.
With knock-down of SMARCA4 #2, the screen gave EdU z-score, cyclin E line, hydroxyurea -1.21.
With knock-down of XRCC6 #1, the screen gave EdU z-score, cyclin E line, hydroxyurea -2.06.
XRCC6 #2 showed EdU z-score, cyclin E line, hydroxyurea -0.287.
FEN1 #1 scored EdU z-score, cyclin E line, hydroxyurea -1.45.
Depletion of FEN1 #2 came out at: EdU z-score, cyclin E line, hydroxyurea 1.3.
For UCN #1 the deposit lists EdU z-score, cyclin E line, hydroxyurea -0.457.
UCN #2 showed EdU z-score, cyclin E line, hydroxyurea 0.636.
PARP2 #1 showed EdU z-score, cyclin E line, hydroxyurea 0.17.
Depletion of PARP2 #2 resulted in: EdU z-score, cyclin E line, hydroxyurea 1.15.
Against H2BC9 #1, the values are EdU z-score, cyclin E line, hydroxyurea -1.83.
Against H2BC9 #2, the values are EdU z-score, cyclin E line, hydroxyurea -1.37.
ZC2HC1A #1 scored EdU z-score, cyclin E line, hydroxyurea 0.975.
Depletion of ZC2HC1A #2 came out at: EdU z-score, cyclin E line, hydroxyurea 1.43.
XRCC2 #1 showed EdU z-score, cyclin E line, hydroxyurea -0.713.
XRCC2 #2 gave EdU z-score, cyclin E line, hydroxyurea 1.75.
NAV2 #1 showed EdU z-score, cyclin E line, hydroxyurea 0.36.
For NAV2 #2, the values are EdU z-score, cyclin E line, hydroxyurea 0.496.
With knock-down of BMI1 #1 the results were EdU z-score, cyclin E line, hydroxyurea 0.895.
BMI1 #2 scored EdU z-score, cyclin E line, hydroxyurea 1.44.
With knock-down of CDCA5 #1 the results were EdU z-score, cyclin E line, hydroxyurea -2.45.
With knock-down of CDCA5 #2, the screen gave EdU z-score, cyclin E line, hydroxyurea -1.51.

Entries listed so far whose gene name starts with S or s (2):
SMARCA4 #1 → EdU z-score, cyclin E line, hydroxyurea: -1.34
SMARCA4 #2 → EdU z-score, cyclin E line, hydroxyurea: -1.21

More entries:
With knock-down of CCNO #1, the screen gave EdU z-score, cyclin E line, hydroxyurea -0.643.
CCNO #2 gave EdU z-score, cyclin E line, hydroxyurea 1.82.
Depletion of H4C9 #1 came out at: EdU z-score, cyclin E line, hydroxyurea -0.442.
H4C9 #2 scored EdU z-score, cyclin E line, hydroxyurea 0.657.
SETD1A #1 scored EdU z-score, cyclin E line, hydroxyurea -0.469.
Against SETD1A #2 the deposit lists EdU z-score, cyclin E line, hydroxyurea 0.863.
Knock-down of H4C4 #1 came out at: EdU z-score, cyclin E line, hydroxyurea -1.01.
Against H4C4 #2, the entry reads EdU z-score, cyclin E line, hydroxyurea 1.34.
Against CCN2 #1, the entry reads EdU z-score, cyclin E line, hydroxyurea 0.418.
Silencing of CCN2 #2 gave: EdU z-score, cyclin E line, hydroxyurea 0.419.
NFIA #1 showed EdU z-score, cyclin E line, hydroxyurea -2.11.
After knock-down of NFIA #2, the screen gave EdU z-score, cyclin E line, hydroxyurea 1.72.
CDK7 #1 scored EdU z-score, cyclin E line, hydroxyurea -0.661.
For CDK7 #2, the values are EdU z-score, cyclin E line, hydroxyurea -0.643.
With knock-down of MNAT1 #1, the record shows EdU z-score, cyclin E line, hydroxyurea -1.69.
Silencing of MNAT1 #2 gave: EdU z-score, cyclin E line, hydroxyurea -1.36.
With knock-down of RAD18 #1, the screen gave EdU z-score, cyclin E line, hydroxyurea -1.36.
Silencing of RAD18 #2 resulted in: EdU z-score, cyclin E line, hydroxyurea 0.721.
